Experiment [1] concerns the target Signal transducer and activator of transcription 3 (STAT3) (human (endogenous in HCCLM3 and MHCC97H)) (UniProt P40763). The experiment in a line: proximity ligation; Duolink proximity ligation assay in HCCLM3 cells with anti-CDC7 and anti-STAT3 antibodies; endogenous proteins.
Experiment [2] has the same target. Kind of experiment: co-IP; endogenous proteins; cytoplasmic and nuclear fractions of MHCC97H cells transfected with siRNAs targeting XPO1 were separated and immunoprecipitated.
For experiment [3] the target is unchanged. The experiment in a line: co-IP; endogenous proteins from whole cell lysates of HCC cells (HCCLM3, MHCC97H); Dynabeads Co-Immunoprecipitation Kit, antibody or IgG on beads, lysate incubated at 4°C for 30 minutes; also in cells with DBF4 depletion, or treated with TNF-α and selinexor.
Experiment [4] has as its target Cell division cycle 7 (CDC7) (human (endogenous in HCCLM3 and MHCC97H)) (UniProt O00311). The description is as above.
The target of experiment [5] is T1, Dumbbell former 4 (DBF4) (human (endogenous in HCCLM3 and MHCC97H)) (UniProt Q9UBU7).
T1 sequence: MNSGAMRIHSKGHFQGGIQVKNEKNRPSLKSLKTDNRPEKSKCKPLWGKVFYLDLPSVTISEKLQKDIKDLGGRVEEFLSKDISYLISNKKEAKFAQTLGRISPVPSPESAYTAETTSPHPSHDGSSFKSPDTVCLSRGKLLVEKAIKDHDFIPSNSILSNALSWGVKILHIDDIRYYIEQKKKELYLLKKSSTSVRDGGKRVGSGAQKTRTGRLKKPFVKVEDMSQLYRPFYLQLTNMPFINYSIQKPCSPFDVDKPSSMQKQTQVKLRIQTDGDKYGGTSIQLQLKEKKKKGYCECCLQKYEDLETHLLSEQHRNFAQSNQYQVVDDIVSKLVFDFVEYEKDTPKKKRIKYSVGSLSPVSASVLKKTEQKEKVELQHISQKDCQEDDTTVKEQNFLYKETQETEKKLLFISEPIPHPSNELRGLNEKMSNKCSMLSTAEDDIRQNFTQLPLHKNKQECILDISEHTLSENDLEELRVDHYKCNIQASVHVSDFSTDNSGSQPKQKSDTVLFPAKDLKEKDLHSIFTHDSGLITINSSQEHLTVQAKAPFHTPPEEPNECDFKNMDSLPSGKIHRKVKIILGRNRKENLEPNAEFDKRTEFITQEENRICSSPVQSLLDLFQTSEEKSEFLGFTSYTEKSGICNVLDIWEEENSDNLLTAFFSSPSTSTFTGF
The description is as above.

Protein sequences, listed by entry. Tags and fused reporters are not part of them.
UniProt P40763: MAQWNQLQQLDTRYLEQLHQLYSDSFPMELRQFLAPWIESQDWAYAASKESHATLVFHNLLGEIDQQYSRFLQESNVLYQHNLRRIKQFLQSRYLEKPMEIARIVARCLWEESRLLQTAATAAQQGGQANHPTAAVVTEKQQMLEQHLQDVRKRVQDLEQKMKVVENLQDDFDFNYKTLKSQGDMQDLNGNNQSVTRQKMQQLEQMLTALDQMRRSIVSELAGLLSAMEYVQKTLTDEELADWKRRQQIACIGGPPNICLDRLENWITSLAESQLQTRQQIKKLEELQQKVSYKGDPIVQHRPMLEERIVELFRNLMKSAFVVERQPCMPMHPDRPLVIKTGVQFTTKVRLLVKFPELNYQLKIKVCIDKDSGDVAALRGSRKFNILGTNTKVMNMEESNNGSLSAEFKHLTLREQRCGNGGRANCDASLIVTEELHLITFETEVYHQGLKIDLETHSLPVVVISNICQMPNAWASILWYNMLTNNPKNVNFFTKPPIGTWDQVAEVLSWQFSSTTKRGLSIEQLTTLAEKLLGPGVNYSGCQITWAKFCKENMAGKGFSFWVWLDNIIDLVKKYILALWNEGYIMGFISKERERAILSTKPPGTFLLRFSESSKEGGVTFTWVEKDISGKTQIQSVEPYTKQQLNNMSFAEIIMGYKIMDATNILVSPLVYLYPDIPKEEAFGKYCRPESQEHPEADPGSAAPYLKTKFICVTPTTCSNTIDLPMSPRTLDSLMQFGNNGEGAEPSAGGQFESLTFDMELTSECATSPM
UniProt O00311: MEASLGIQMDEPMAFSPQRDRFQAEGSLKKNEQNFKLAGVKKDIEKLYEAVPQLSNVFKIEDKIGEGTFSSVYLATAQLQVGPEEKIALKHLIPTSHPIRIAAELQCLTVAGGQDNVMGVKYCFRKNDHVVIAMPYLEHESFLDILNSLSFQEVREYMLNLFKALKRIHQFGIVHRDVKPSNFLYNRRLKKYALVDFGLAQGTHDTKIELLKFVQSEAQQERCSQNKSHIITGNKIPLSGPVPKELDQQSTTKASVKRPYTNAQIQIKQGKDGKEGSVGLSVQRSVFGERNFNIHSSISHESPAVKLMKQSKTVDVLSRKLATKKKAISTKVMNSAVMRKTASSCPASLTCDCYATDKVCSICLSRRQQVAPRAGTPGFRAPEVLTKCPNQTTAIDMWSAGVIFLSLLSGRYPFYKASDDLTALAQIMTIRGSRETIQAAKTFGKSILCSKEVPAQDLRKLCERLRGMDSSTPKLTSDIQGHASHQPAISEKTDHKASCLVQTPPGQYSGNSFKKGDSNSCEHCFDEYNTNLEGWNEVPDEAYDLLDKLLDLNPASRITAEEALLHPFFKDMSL
UniProt O14980: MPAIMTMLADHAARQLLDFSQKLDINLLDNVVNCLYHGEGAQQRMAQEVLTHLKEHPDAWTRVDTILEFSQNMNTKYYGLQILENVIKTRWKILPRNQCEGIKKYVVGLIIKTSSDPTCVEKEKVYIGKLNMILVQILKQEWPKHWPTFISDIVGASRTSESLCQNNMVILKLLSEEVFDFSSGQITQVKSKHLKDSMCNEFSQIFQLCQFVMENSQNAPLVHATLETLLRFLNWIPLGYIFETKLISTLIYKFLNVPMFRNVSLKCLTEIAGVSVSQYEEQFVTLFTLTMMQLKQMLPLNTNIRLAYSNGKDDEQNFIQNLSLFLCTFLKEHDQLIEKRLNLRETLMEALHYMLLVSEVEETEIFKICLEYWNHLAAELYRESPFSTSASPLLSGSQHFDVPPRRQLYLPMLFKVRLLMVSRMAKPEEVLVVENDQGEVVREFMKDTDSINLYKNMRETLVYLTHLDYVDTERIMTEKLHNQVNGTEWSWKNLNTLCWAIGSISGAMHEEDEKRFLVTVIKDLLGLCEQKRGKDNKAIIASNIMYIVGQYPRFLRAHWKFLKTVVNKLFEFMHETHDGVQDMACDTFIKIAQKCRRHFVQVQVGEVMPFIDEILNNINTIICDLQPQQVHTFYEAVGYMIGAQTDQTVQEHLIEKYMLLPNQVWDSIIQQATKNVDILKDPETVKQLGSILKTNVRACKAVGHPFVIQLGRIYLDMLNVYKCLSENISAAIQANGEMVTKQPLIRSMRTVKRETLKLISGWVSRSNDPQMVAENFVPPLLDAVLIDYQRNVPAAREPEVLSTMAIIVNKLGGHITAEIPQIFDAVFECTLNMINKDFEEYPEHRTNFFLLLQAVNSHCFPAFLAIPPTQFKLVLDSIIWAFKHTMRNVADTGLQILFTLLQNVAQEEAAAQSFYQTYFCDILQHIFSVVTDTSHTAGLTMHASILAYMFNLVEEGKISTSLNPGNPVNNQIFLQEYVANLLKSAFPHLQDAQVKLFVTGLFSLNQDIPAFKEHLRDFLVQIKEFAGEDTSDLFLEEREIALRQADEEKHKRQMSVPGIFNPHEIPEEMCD

In experiment [6] the target is Myc-tagged CDC7 (UniProt O00311). The experiment in a line: co-IP; HEK293T cells cotransfected with Myc-CDC7 and HA-STAT3 (whole or truncated); immunoprecipitated with anti-Myc antibody, blot with anti-HA; also with TNF-α and selinexor treatment.
The target of experiment [7] is HA-tagged STAT3 (UniProt P40763). The experiment in a line: co-IP; HEK293T cells transfected with the indicated expressing plasmids (Flag-DBF4, STAT3, CDC7 wild type or D196N); precipitating antibody not told.
The target is the same in experiment [8]. The experiment in a line: co-IP; HEK293T cells transfected with Myc-CDC7 and/or HA-STAT3; whole cell lysates immunoprecipitated with anti-HA antibody, IgG as negative control; blot with anti-Myc and anti-HA.

4 substances from article PMC10367558 can be followed below.

No constants are given. Whether binding was seen depends on the method and setting. In cells and extracts the contact can be indirect. Some entries that bind do so weakly or less than the wild type.

Take “Cell division cycle 7 (CDC7) (from UniProt O00311 1-574) (enzyme)”: the binding result in experiment [1], in experiment [2] and in experiment [3] was “binds” throughout.
As to “Exportin 1 (XPO1) (from UniProt O14980 1-1071)”, the binding result in experiment [4] and in experiment [5] was “binds” in each case.
With “HA-tagged STAT3 (from UniProt P40763 1-770)”, in experiment [6], the binding result is on record as “binds”.
Consider “Myc-tagged CDC7 (from UniProt O00311 1-574) (enzyme)”, for which the binding result in experiment [7] and in experiment [8] was “binds” each time.
